± gives the standard deviation of the averaged measurements. This is one part of the list.
Compound: Nc1nc2c(ncn2[C@@H]2O[C@H](COP(=O)(O)OP(=O)(O)OP(=O)(O)O)[C@@H](O)[C@H]2O)c(=O)[nH]1 [guanosine triphosphate]
Assay: NP40-soluble protein abundance relative to vehicle (solubility fold change) (ratio); higher = more soluble protein in presence of GTP
Protocol: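 Solubility proteome profiling in Jurkat crude lysate. Lysate was treated with Mg-GTP (0.1-10 mM) for 10 min at room temperature and 3 min at 37 °C, then solubilised with 0.8% NP40 and benzonase, followed by ultracentrifugation. Proteins were quantified by TMT10 LC-MS/MS; the value is the NP40-soluble abundance relative to the NP40-processed vehicle, from 3 independent experiments.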

Sequences of proteins named here, by UniProt entry; tags and fusion partners are left off. A change or cut given only in a name is not applied to a line headed by its entry.
UniProt Q15645: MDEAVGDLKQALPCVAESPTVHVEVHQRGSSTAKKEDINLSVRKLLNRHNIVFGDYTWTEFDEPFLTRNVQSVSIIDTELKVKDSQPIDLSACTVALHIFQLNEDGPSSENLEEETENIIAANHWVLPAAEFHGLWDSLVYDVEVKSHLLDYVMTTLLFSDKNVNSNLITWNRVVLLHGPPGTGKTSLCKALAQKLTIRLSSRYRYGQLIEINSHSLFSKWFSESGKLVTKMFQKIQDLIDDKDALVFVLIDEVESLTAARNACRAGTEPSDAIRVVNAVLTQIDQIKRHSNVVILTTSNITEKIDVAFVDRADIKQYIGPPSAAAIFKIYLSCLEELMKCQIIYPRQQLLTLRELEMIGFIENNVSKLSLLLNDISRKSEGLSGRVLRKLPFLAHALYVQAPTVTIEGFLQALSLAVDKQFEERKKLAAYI
UniProt Q16763: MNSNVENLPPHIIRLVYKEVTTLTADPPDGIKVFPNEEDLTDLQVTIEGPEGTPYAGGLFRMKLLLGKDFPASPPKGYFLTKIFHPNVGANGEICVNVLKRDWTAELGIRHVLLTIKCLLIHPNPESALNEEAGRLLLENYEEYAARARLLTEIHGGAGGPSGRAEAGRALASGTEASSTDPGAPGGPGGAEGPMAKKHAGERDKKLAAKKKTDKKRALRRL
UniProt Q16854: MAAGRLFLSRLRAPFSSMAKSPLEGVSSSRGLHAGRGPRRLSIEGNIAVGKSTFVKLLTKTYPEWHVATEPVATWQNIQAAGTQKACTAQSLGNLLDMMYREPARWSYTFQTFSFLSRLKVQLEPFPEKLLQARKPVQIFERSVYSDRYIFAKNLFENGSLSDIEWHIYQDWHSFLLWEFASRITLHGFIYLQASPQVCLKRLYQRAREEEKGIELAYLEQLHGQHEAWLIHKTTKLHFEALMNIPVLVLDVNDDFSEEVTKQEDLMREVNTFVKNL

Row | Target | NP40-soluble protein abundance (concentration: 0.1mM) | NP40-soluble protein abundance (concentration: 0.5mM) | NP40-soluble protein abundance (concentration: 1mM) | NP40-soluble protein abundance (concentration: 2mM) | NP40-soluble protein abundance (concentration: 4mM) | NP40-soluble protein abundance (concentration: 6mM) | NP40-soluble protein abundance (concentration: 8mM) | NP40-soluble protein abundance (concentration: 10mM)
1 | TRIP13 (UniProt Q15645) | 1.07 ± 0.076 | 1.06 ± 0.11 | 0.923 ± 0.054 | 0.971 ± 0.085 | 0.943 ± 0.072 | 0.935 ± 0.065 | 0.883 ± 0.048 | 0.862 ± 0.044
2 | UBE2S (UniProt Q16763) | 0.992 ± 0.031 | 0.941 ± 0.01 | 0.9603 ± 0.0058 | 0.905 ± 0.015 | 0.924 ± 0.023 | 0.905 ± 0.023 | 0.928 ± 0.054 | 0.869 ± 0.032
3 | UniProt Q16854 and related entries | 1.04 ± 0.031 | 1.01 ± 0.059 | 0.907 ± 0.049 | 0.857 ± 0.032 | 0.892 ± 0.023 | 0.846 ± 0.021 | 0.876 ± 0.081 | 0.817 ± 0.073
4 | FSCN1 (UniProt Q16658) | 1.11 ± 0.052 | 1.06 ± 0.017 | 1.07 ± 0.11 | 1.05 ± 0.024 | 1.05 ± 0.06 | 1.02 ± 0.052 | 1.03 ± 0.053 | 0.986 ± 0.037
5 | UniProt Q15006 | 0.987 ± 0.011 | 0.957 ± 0.023 | 0.928 ± 0.033 | 0.943 ± 0.03 | 0.91 ± 0.03 | 0.914 ± 0.032 | 0.887 ± 0.018 | 0.9 ± 0.032

Source: the supplement of paper PMC6411743
